Test results from paper doi:10.1101/2020.12.23.424221.
Results are given in words; binding and its absence hold for the method and conditions named. Tags and fused reporters may be left off the sequences shown.

Molecular target: T1, GFP-tagged Kif4A (human), O95239
T1 chain: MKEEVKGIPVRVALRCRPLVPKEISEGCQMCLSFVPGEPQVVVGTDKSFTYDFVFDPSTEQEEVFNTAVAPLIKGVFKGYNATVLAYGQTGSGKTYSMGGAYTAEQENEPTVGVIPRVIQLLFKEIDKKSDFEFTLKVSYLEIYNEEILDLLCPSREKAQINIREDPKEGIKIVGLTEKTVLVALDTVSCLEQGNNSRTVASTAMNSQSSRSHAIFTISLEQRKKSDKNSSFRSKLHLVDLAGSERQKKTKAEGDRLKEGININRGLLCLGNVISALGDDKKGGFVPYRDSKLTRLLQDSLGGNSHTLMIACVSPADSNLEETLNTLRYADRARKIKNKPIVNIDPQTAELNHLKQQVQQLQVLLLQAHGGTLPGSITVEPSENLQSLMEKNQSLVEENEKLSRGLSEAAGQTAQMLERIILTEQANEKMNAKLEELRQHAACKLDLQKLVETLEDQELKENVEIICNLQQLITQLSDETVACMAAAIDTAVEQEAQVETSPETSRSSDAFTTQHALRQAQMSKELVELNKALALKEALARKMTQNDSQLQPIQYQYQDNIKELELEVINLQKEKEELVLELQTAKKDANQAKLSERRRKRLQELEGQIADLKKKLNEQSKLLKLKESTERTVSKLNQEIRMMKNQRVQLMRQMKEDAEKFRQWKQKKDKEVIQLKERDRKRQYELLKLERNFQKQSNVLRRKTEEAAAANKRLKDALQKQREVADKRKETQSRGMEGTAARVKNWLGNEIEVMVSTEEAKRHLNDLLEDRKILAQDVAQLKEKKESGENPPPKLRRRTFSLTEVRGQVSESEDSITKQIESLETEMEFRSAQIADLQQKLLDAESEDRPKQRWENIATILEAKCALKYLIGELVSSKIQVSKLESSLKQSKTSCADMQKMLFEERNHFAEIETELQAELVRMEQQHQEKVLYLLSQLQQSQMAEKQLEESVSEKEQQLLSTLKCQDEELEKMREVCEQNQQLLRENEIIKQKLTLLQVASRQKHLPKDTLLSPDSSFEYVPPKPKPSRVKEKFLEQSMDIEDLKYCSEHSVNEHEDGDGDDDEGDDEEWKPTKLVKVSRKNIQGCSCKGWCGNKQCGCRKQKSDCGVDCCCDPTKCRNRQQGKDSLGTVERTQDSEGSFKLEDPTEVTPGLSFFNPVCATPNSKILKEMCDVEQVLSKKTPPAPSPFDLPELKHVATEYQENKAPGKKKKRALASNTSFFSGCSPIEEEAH
Assay: single-molecule fluorescence intensity measurements
Conditions: remark: other sources report otherwise

binding: no binding
B1: GFP-tagged Kif4A, O95239 1-1232 (protein)
chain: T1 chain
